Literature values in patent publication US20100311717A1, “METHODS AND COMPOSITIONS FOR RETARDING WEIGHT GAIN ASSOCIATED WITH USE OF ATYPICAL ANTIPSYCHOTIC DRUGS” (priority 2007, published 2010).
At least one compound was matched to its structure with a doubt left.

Details: cited from earlier work

In the case of `CC(C)C[C@H]1C(=O)N2CCC[C@H]2[C@]2(O)O[C@](NC(=O)[C@@H]3C=C4c5cccc6[nH]c(Br)c(c56)C[C@H]4N(C)C3)(C(C)C)C(=O)N12` [bromocriptine], the “basal metabolic rate (BMR)” value (after 8 days) is listed as “increased”, the blood pressure (after 8 days) is listed as “lower blood pressure” and the “diurnal glucose and insulin concentrations” value (after 8 days) is listed as “reduction”. The insulin sensitivity (in vivo) was “increase insulin sensitivity”, the body fat (long-term) was “reduced body fat” and the glucose tolerance (long-term) was “increased glucose tolerance”.
